# The shares of active, inactive and inconclusive entries below differ from those in the screen. For part of these data: A potency beside an inconclusive call is a rough fit, not a confirmed value. The source made the active and inactive calls. The calls were made as follows: active = hit-call score of the fitted dose curve at least 0.9, where 1 is the maximum; inconclusive = response in the unintended direction; inactive = score below 0.9.
# Sequences of proteins named here, by UniProt entry; tags and fusion partners are left off. A change or cut given only in a name is not applied to a line headed by its entry.
# UniProt P11712, whole entry, looked up: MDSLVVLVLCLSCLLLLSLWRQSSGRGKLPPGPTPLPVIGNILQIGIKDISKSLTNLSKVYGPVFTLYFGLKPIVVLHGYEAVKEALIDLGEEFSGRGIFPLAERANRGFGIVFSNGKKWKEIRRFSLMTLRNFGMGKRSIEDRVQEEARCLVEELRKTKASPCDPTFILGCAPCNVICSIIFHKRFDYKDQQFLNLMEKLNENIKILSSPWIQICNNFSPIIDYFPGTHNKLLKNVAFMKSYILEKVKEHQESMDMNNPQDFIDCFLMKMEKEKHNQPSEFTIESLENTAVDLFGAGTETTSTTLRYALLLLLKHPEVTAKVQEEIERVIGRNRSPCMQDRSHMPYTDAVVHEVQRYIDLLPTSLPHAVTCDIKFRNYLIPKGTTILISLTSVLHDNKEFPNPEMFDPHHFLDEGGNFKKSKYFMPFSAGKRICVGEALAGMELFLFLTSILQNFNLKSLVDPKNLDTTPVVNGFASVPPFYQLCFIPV
# UniProt P04406: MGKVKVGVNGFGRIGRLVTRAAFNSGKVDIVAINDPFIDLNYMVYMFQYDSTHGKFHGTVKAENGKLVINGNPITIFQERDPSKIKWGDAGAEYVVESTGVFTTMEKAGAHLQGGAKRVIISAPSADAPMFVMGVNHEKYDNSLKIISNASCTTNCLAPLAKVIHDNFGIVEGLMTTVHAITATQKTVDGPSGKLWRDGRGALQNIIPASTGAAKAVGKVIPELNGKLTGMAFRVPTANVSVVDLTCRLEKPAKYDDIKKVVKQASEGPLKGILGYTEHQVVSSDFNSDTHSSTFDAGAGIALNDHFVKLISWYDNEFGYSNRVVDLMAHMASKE
# UniProt Q96RI1: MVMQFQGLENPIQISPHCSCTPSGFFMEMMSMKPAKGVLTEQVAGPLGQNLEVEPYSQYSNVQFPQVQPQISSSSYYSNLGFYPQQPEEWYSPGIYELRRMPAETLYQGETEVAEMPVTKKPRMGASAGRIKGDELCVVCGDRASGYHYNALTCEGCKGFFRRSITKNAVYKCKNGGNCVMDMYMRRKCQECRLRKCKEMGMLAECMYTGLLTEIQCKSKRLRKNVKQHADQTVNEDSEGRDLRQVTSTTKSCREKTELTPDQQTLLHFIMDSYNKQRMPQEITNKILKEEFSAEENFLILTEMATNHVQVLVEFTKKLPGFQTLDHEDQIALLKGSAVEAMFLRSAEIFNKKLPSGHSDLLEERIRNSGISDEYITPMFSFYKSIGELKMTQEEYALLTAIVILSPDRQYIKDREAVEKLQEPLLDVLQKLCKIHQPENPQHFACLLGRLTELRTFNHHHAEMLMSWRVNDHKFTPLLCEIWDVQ
# UniProt P62508: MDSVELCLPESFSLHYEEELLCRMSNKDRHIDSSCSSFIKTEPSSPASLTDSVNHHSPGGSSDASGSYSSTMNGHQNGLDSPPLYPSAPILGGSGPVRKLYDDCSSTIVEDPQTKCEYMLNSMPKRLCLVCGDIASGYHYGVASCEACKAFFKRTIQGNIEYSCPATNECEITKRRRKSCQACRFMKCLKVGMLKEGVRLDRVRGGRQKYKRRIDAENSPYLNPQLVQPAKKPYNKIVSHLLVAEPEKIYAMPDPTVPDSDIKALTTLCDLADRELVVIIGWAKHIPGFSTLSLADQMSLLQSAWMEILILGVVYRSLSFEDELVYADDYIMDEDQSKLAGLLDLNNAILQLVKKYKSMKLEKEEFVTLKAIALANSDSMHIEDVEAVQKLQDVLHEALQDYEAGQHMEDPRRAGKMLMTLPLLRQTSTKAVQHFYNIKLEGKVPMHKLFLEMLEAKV
# UniProt P19785, whole entry, looked up: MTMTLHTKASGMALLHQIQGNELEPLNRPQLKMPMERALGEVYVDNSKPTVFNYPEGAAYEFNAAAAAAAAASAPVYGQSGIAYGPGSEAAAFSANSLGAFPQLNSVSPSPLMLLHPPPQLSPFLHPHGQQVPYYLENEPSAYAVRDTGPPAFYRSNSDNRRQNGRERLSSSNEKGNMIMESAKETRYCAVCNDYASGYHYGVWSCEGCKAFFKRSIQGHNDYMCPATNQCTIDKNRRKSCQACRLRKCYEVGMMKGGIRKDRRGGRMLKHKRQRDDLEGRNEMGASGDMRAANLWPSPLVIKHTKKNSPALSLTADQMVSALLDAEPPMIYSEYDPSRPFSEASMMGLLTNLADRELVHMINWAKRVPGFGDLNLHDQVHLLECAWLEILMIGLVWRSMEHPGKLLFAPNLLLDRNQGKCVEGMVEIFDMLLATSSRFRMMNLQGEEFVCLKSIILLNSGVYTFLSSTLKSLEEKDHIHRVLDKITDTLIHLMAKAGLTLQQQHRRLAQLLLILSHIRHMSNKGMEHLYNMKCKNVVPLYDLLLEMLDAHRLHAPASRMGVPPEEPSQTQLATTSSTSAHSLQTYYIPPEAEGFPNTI
# UniProt P49884, whole entry, looked up: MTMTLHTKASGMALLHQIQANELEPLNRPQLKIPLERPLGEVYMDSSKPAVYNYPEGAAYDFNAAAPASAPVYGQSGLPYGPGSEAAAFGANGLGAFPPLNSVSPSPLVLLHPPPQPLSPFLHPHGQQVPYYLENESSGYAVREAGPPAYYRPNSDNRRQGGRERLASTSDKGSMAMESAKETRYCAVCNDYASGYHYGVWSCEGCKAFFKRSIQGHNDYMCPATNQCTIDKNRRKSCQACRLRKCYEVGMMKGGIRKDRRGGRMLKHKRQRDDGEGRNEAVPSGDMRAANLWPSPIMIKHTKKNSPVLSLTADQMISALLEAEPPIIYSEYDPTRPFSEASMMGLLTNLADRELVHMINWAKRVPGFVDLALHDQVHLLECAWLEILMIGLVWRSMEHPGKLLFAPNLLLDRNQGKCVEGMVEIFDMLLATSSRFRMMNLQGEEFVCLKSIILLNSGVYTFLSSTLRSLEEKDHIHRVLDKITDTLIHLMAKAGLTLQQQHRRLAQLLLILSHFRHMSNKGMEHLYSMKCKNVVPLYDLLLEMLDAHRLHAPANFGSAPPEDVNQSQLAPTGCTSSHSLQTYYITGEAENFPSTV
# UniProt P33261, whole entry, looked up: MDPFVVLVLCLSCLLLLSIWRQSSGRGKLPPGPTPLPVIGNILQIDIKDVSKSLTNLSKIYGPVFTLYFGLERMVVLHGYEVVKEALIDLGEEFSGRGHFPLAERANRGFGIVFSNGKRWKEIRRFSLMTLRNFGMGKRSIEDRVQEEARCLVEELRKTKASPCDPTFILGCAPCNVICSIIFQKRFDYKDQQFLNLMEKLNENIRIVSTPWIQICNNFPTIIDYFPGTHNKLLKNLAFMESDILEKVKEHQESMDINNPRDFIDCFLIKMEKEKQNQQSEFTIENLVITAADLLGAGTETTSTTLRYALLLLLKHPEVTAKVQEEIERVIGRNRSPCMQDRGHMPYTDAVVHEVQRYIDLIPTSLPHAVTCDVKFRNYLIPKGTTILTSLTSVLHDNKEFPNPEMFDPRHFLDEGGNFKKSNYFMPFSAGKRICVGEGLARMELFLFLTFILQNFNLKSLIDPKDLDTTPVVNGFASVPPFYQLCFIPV
# UniProt O75469: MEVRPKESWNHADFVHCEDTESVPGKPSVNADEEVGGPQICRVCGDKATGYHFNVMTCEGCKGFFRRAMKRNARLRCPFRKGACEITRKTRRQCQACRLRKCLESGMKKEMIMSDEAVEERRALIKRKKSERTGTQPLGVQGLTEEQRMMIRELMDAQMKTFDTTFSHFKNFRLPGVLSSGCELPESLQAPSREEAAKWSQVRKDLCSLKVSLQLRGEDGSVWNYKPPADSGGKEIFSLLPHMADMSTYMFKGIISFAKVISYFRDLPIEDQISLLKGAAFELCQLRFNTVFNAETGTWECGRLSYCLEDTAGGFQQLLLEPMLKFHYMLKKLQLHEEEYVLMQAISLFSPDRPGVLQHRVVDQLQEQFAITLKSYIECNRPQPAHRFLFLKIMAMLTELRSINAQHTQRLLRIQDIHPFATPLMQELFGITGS
# Tests used:
# [1] = Tanguay_ZF_120hpf_CIRC_legacy: (Legacy) Oregon State University Tanguay Lab 120 Hour Post-fertilization zebrafish Assay for Circulatory Malformation (AID 2283651)
# Outline: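 Using wild-type Tropical 5D zebrafish, we exposed dechorionated embryos from 6 to 120 hpf in embryo medium with 0.64% DMSO. Circulatory defects were scored as present or absent; 5uM trimethyltin chloride served as positive control.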
# [2] = CLD_ACTIN_24hr: CellzDirect (CLD) Gene Expression Assay for Baseline Control (Actin) at 24 hours (AID 2283670)
# Outline: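 Primary human hepatocytes dosed over multiple concentrations with 0.2% DMSO vehicle; actin mRNA measured at 24 h by qNPA chemiluminescence. Background control endpoint, fitted as gain of signal versus DMSO.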
# [3] = read-out: HMG-CoA synthase (HMGCS2), HMGCS2 (gene 3158); test: CLD_HMGCS2_6hr: CellzDirect (CLD) Gene Expression Assay for HMG-CoA synthase (HMGCS2) at 6 hours (AID 2283682);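 also: actives raise HMGCS2 transcript above the 0.2% DMSO vehicle baseline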
# Outline: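 Primary human hepatocytes dosed daily with fresh chemical, 0.2% DMSO vehicle; HMGCS2 mRNA measured at 6 h by qNPA chemiluminescence. Gain of signal fitted against DMSO; cytotoxicity flagged from phase-contrast morphology.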
# [4] = read-out: Cytochrome P450 2C9 (Homo sapiens) (UniProt P11712); test: CLD_CYP2C9_24hr: CellzDirect (CLD) Gene Expression Assay for xenobiotic metabolism (CYP2C9) at 24 hours (AID 2283688);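 as to AC50: potency for induction meaning a rise in CYP2C9 mRNA over DMSO vehicle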
# Outline: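 Primary human hepatocytes from two donor preparations, dosed daily for two days at multiple concentrations; vehicle 0.2% DMSO. CYP2C9 mRNA induction at 24 h measured by qNPA chemiluminescence relative to DMSO; cytotoxicity annotated from morphology.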
# [5] = read-out: HMG-CoA synthase (HMGCS2), HMGCS2 (gene 3158); test: CLD_HMGCS2_24hr: CellzDirect (CLD) Gene Expression Assay for HMG-CoA synthase (HMGCS2) at 24 hours (AID 2283691)
# Outline: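 Primary human hepatocytes from two donor preparations, dosed daily with fresh solutions; vehicle 0.2% DMSO, 24 h harvest. HMGCS2 mRNA quantified by qNPA with S1 nuclease digestion and chemiluminescence; gain fitted versus DMSO, cytotoxicity annotated by morphology.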
# [6] = read-out: Glyceraldehyde-3-phosphate dehydrogenase (Homo sapiens) (UniProt P04406); test: CLD_GAPDH_24hr: CellzDirect (CLD) Gene Expression Assay for Baseline Control (Glyceraldehyde 3-phosphate dehydrogenase) at 24 hours (AID 2283692)
# Outline: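 Primary human hepatocytes (two donor preparations) dosed daily for two days, 0.2% DMSO vehicle; GAPDH mRNA measured at 24 h by qNPA chemiluminescence as a background control, gain-of-signal fitted against DMSO.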
# [7] = read-out: Glyceraldehyde-3-phosphate dehydrogenase (Homo sapiens) (UniProt P04406); test: CLD_GAPDH_48hr: CellzDirect (CLD) Gene Expression Assay for Baseline Control (Glyceraldehyde 3-phosphate dehydrogenase) at 48 hours (AID 2283706);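 as to outcome: active means higher GAPDH mRNA than DMSO vehicle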
# Outline: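 Primary human hepatocytes dosed daily for two days with fresh chemical at multiple concentrations, 0.2% DMSO vehicle; GAPDH mRNA measured at 48 h by quantitative nuclease protection assay with chemiluminescence, fitted upward relative to DMSO as background control.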
# [8] = read-out: organic anion transporter (SLCO1B1), SLCO1B1 (gene 10599); test: CLD_SLCO1B1_48hr: CellzDirect (CLD) Gene Expression Assay for organic anion transporter (SLCO1B1) at 48 hours (AID 2283707)
# Outline: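 Primary human hepatocytes from two donor preparations dosed daily for two days with multiple concentrations, 0.2% DMSO vehicle. SLCO1B1 mRNA at 48 h by quantitative nuclease protection assay, chemiluminescence; gain-of-signal fitted versus DMSO.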
# [9] = read-out: HMG-CoA synthase (HMGCS2), HMGCS2 (gene 3158); test: CLD_HMGCS2_48hr: CellzDirect (CLD) Gene Expression Assay for HMG-CoA synthase (HMGCS2) at 48 hours (AID 2283711)
# Outline: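 Primary human hepatocytes from two donors dosed daily for two days, 0.2% DMSO vehicle. HMGCS2 mRNA measured 48 h after dosing by quantitative nuclease protection assay with chemiluminescent read-out; induction fitted relative to DMSO, cytotoxicity flagged by microscopy.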
# [10] = CCTE_Deisenroth_AIME_384WELL_CTox_Active: Cytotoxicity Assessment (CTOX) in CCTE's 384-well Estrogen Receptor Transactivation Assay with AIME metabolic competence (metabolism positive), Deisenroth Lab (AID 2284037);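 also: chemicals first conditioned 2 h by alginate-bound induced rat liver S9 before cells; activity means signal loss indicating cell death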
# Outline: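 VM7Luc4E2 breast cells received medium pre-incubated 2 h with chemical over alginate microspheres holding induced male Sprague Dawley rat liver S9; viability read 24 h later by protease-substrate fluorescence. Loss of signal, bidirectional fit, 0.002–200 uM.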
# [11] = molecular target: Bile acid receptor (Homo sapiens) (UniProt Q96RI1); test: OT_FXR_FXRSRC1_0480: Odyssey Thera (OT) 8-hour HEK293T Protein-Complementation Assay for Farnesoid X receptor/SRC-1 Co-activator (AID 2283383)
# Outline: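 Co-activator recruitment to FXR was measured in living HEK293T cells, where interaction of the two fused partners restored an active fluorescent reporter. Signal gain after 8 h treatment was referenced to DMSO.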
# [12] = molecular target: Bile acid receptor (Homo sapiens) (UniProt Q96RI1); test: OT_FXR_FXRSRC1_1440: Odyssey Thera (OT) 24-hour HEK293T Protein-Complementation Assay for Farnesoid X receptor/SRC-1 Co-activator (AID 2283384)
# Outline: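 Cell-based binding reporter: interaction of FXR with SRC-1 brings reporter fragments together, giving a fluorescence signal read 24 h after dosing of HEK293T cells.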
# [13] = molecular target: Estrogen-related receptor gamma (Homo sapiens) (UniProt P62508); test: ATG_ERRg_TRANS: Attagene TRANS-FACTORIAL HepG2 Assay for human Estrogen-Related Receptor gamma (ERRg) (AID 2282977); conditions: HepG2 Attagene TRANS reporter, ERRg transactivation;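 also: hits increase reporter signal over DMSO so potencies reflect activators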
# Outline: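 Transient HepG2 transfectants, 24 h compound exposure, GAL4-UAS reporter mRNA by RT-PCR/6-FAM labelling/capillary electrophoresis; positive direction vs DMSO.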
# [14] = Tanguay_ZF_120hpf_NC_legacy: (Legacy) Oregon State University Tanguay Lab 120 Hour Post-fertilization zebrafish Assay for Notochord and Tail Malformation (AID 2283656)
# Outline: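 Dechorionated 5D zebrafish, 1/well from 6 hpf; static exposure to 120 hpf, 28C, sealed, dark; final DMSO 0.64% v/v. NC scored binary (present/absent); dead embryos not scored. Fit vs DMSO baseline, gain direction.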
# [15] = read-out: organic anion transporter (SLCO1B1), SLCO1B1 (gene 10599); test: CLD_SLCO1B1_6hr: CellzDirect (CLD) Gene Expression Assay for organic anion transporter (SLCO1B1) at 6 hours (AID 2283668);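 also: active means mRNA induction above DMSO baseline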
# Outline: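 Primary human hepatocytes dosed daily with test chemicals (multiple concentrations) in 0.2% DMSO vehicle; harvested at 6 h. SLCO1B1 mRNA quantified by qNPA chemiluminescence, fitted as gain-of-signal versus DMSO; cytotoxicity from phase-contrast morphology flagged alongside.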
# [16] = molecular target: mouse Estrogen Receptor alpha (Era), Esr1 (gene 13982) (UniProt P19785); test: NVS_NR_mERa: NovaScreen (NVS) Nuclear Receptor Binding Assay for mouse Estrogen Receptor alpha (Era) (AID 2283378);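 also: hit means loss of bound radioligand signal relative to DMSO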
# Outline: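 Cell-free radioligand competitive displacement binding, read by filter-based scintillation counting 18 h after dosing. Primary screen run in duplicate at 25 uM, actives retested in concentration series; loss of signal versus DMSO.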
# [17] = ACEA_AR_antagonist_AUC_viability: ACEA Biosciences xCELLigence Real-Time Cell Analysis on Androgen Receptor Antagonism for Viability (AID 2283776);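 also: 22Rv1 human prostate cancer cells growing on impedance electrode plates; area under impedance growth curve at 80 h after dosing as viability; hits lower the growth signal relative to DMSO meaning cytotoxicity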
# Outline: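 Real-time electrical impedance tracks 22Rv1 proliferation after continuous compound exposure (top 100 uM final, 1:4 steps, 8 concentrations). The 80 h area-under-curve serves as the cytotoxicity readout relative to DMSO.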
# [18] = molecular target: bovine Estrogen Receptor (ER), ESR1 (gene 407238) (UniProt P49884); test: NVS_NR_bER: NovaScreen (NVS) Nuclear Receptor Binding Assay for bovine Estrogen Receptor (ER) (AID 2283345);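 also: actives lower the bound radioligand count which means they displace the ER ligand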
# Outline: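 Cell-free radioligand binding with receptor from bovine uterine membranes, read by scintillation counting 18 h after dosing. Loss of specific binding was scored against DMSO; primary screen at 25 uM in duplicate, actives then run as concentration series.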
# [19] = read-out: Cytochrome P450 2C19 (Homo sapiens) (UniProt P33261); test: CLD_CYP2C19_48hr: CellzDirect (CLD) Gene Expression Assay for xenobiotic metabolism (CYP2C19) at 48 hours (AID 2283700);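 as to outcome: fitted upward so actives raise CYP2C19 mRNA above the 0.2% DMSO vehicle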
# Outline: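 Primary human hepatocytes (two donor preparations) dosed daily for two days, harvested at 48 h; CYP2C19 mRNA induction measured by qNPA chemiluminescence. Gain-of-signal fitted relative to 0.2% DMSO vehicle as baseline.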
# [20] = molecular target: Nuclear receptor subfamily 1 group I member 2 (Homo sapiens) (UniProt O75469); test: NVS_NR_hPXR: NovaScreen (NVS) Nuclear Receptor Binding Assay for human Pregnane X Receptor (PXR) (AID 2283365);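 also: a drop in FRET signal versus DMSO baseline means the compound binds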
# Outline: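 Cell-free TR-FRET binding assay with extracted human PXR protein, read 2 h after dosing. Primary screen run in duplicate at 25 uM, actives followed in concentration series; loss of signal fitted against DMSO baseline.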
structure (smiles),measurement,setting,value
O=c1n(Cl)c(=O)n(Cl)c(=O)n1Cl,outcome,[1],inactive
same,AC50,[2],inconclusive: 20 µM
same,outcome,[3],inactive
same,outcome,[4],inactive
same,AC50,[5],inconclusive: 0.274 µM
same,outcome,[6],inactive
same,AC50,[7],inconclusive: 20 µM
same,outcome,[8],inactive
same,AC50,[9],inconclusive: 20 µM
same,AC50,[10],inconclusive: 0.0002 µM
CC(O)CN(CC(C)O)CC(C)O (stereo unspecified),AC50,[11],inconclusive: 50 µM
same,outcome,[12],inactive
O=P(OCCCl)(OCCCl)OCCCl,AC50,[13],inconclusive: 100 µM
same,outcome,[12],inactive
same,AC50,[1],inconclusive: 46.4 µM
same,AC50,[14],inconclusive: 38.1 µM
O=[N+]([O-])C=Cc1ccccc1,outcome,[13],inactive
O=C(O)c1c(Cl)ccc2cc(Cl)cnc12,AC50,[1],inconclusive: 35.5 µM
same,AC50,[15],inconclusive: 20 µM
same,outcome,[2],inactive
same,AC50,[3],inconclusive: 20 µM
same,outcome,[4],inactive
same,AC50,[5],inconclusive: 20 µM
same,outcome,[6],inactive
same,outcome,[8],inactive
same,outcome,[9],inactive
CC(C)[C@@H](Nc1ccc(C(F)(F)F)cc1Cl)C(=O)OC(C#N)c1cccc(Oc2ccccc2)c1 (stereo partly specified),AC50,[16],inconclusive: 24.2 µM
CN(C)C(=O)Nc1ccc(Cl)cc1,AC50,[12],active: 66.9 µM
same,AC50,[17],active: 50 µM
c1csc(-c2ccc(-c3cccs3)s2)c1,AC50,[18],inconclusive: 25 µM
same,AC50,[16],inconclusive: 4.9 µM
Nc1ncn[nH]1,AC50,[12],inconclusive: 50 µM
same,AC50,[17],inconclusive: 0.159 µM
same,outcome,[10],inactive
O=C(NC(=O)c1c(F)cccc1F)Nc1cc(Cl)c(Oc2ncc(C(F)(F)F)cc2Cl)c(Cl)c1,AC50,[18],inconclusive: 24.1 µM
same,outcome,[16],inactive
CCCSP(=O)(OCC)Oc1ccc(Br)cc1Cl (stereo unspecified),AC50,[1],inconclusive: 6.56 µM
same,AC50,[14],inconclusive: 19 µM
same,outcome,[15],inactive
same,AC50,[2],inconclusive: 7.13 µM
same,AC50,[3],inconclusive: 20 µM
same,outcome,[4],inactive
same,AC50,[5],inconclusive: 0.00155 µM
same,AC50,[6],inconclusive: 20 µM
same,AC50,[19],inconclusive: 20 µM
same,AC50,[7],inconclusive: 2.43 µM
same,outcome,[8],inactive
same,outcome,[9],inactive
O=P(OCC(Br)CBr)(OCC(Br)CBr)OCC(Br)CBr (stereo unspecified),AC50,[18],inconclusive: 0.129 µM
same,AC50,[20],active: 0.423 µM
same,AC50,[16],inconclusive: 0.337 µM
same,AC50,[11],active: 11.4 µM
O=P1(NCCCl)OCCCN1CCCl (stereo unspecified),AC50,[13],inconclusive: 100 µM
[CH3][Sn]([CH3])([Cl])[Cl],outcome,[13],inactive
same,outcome,[20],inactive
COP(=O)(NC(C)=O)SC (stereo unspecified),AC50,[14],inconclusive: 54.3 µM
same,outcome,[15],inactive
same,outcome,[2],inactive
same,AC50,[3],inconclusive: 1.9 µM
same,AC50,[4],inconclusive: 20 µM
same,AC50,[5],inconclusive: 20 µM
same,outcome,[19],inactive
same,outcome,[7],inactive
same,outcome,[8],inactive
same,outcome,[9],inactive
same,outcome,[10],inactive

# Reformatted: entries from further up.
structure (smiles) | measurement | setting | value
O=P(OCCCl)(OCCCl)OCCCl | outcome | [12] | inactive
CN(C)C(=O)Nc1ccc(Cl)cc1 | AC50 | [17] | active: 50 µM
COP(=O)(NC(C)=O)SC (stereo unspecified) | outcome | [10] | inactive
